Columns and labels:
[1] = Visual evaluation of top sheet whiteness after the absorbent body migration rate test; parameters: species or system horse; key: VG (Very Good): Virtually no redness of blood remaining, and no clear delineation between areas with and without blood.; G (Good): Slight redness of blood remaining, but difficult to delineate between areas with and without blood.; F (Fair): Slight redness of blood remaining, areas with blood discernible.; P (Poor): Redness of blood completely remaining; conditions: Table 3; skin contact surface, visual scale
[2] = Absorbent body migration rate; parameters: species or system horse
[3] = Liquid residue test, blood cell count per 1 g of top sheet; parameters: species or system horse; conditions: per 1 g of top sheet coated at about 5 g/m^2
[4] = Liquid dropping test (color difference of top sheet); conditions: CIE L*a*b*, skin contact surface of top sheet coated at about 5 g/m^2, 40 seconds after second dropping of 3 mL horse EDTA blood
[5] = Table 3, napkin top sheet coated as in Production Example 1
[6] = Table 2, time for horse EDTA blood to migrate from top sheet into absorbent body

## CCCCCCCCOC(=O)CCCCC(=O)OCCCCCCCC [Dioctyl adipate]
[1]
  Top sheet whiteness: VG
[2]; [5]
  Absorbent body migration rate: 6 s

## CCCCCCCCCCCCOC(=O)CCCCCCCCCCC [ELECTOL WE20]
[1]
  Top sheet whiteness: VG
[2]; [5]
  Absorbent body migration rate: 5 s

## CCCCCCCCCCCCCC(=O)OCCCCCCCCCCCC [ELECTOL WE40]
[1]
  Top sheet whiteness: VG
[3]
  Blood cell count: 6e+07 g⁻¹
[4]
  Color difference ΔE: 43.5
[2]; [6]
  Absorbent body migration rate: 4 s
[2]; [5]
  Absorbent body migration rate: 4 s

## CCCCC(CC)C(=O)OCC(C)(C)COC(=O)C(CC)CCCC (centres unmarked) [H-208BRS, Neopentylglycol di(2-ethylhexanoate)]
[1]
  Top sheet whiteness: VG
[3]
  Blood cell count: 1.5e+08 g⁻¹
[4]
  Color difference ΔE: 39.4
[2]; [6]
  Absorbent body migration rate: 5 s
[2]; [5]
  Absorbent body migration rate: 5 s

## CCCCC(CC)C(=O)OCC(COC(=O)C(CC)CCCC)(COC(=O)C(CC)CCCC)COC(=O)C(CC)CCCC (centres unmarked) [H-408BRS, Pentaerythritol tetra(2-ethylhexanoate)]
[3]
  Blood cell count: 1.8e+08 g⁻¹
[4]
  Color difference ΔE: 45.5

## CCCCC(CC)C(=O)OCC(COC(=O)C(CC)CCCC)OC(=O)C(CC)CCCC (centres unmarked) [PANACET 800B]
[1]
  Top sheet whiteness: VG
[2]; [5]
  Absorbent body migration rate: 3 s

## CCCCCCCC(=O)OCC(COC(=O)CCCCCCC)OC(=O)CCCCCCC [PANACET 800]
[1]
  Top sheet whiteness: VG
[2]; [5]
  Absorbent body migration rate: 3 s

## CCCCCCCCCCCC(=O)OCC(O)CO (centres unmarked) [lauric acid monoglyceride]
[1]
  Top sheet whiteness: P
[3]
  Blood cell count: 7e+07 g⁻¹
[4]
  Color difference ΔE: 29.8
[2]; [6]
  Absorbent body migration rate: 7 s
[2]; [5]
  Absorbent body migration rate: 7 s

## Caprylic acid diglyceride
[1]
  Top sheet whiteness: G
[2]; [5]
  Absorbent body migration rate: 9 s

## Isopropyl citrate
[1]
  Top sheet whiteness: G
[2]; [5]
  Absorbent body migration rate: 5 s

Reference: US9301885B2, “Absorbent article” (UNICHARM CORPORATION, priority 2011, dated 2016)
